Some entries share one result that the patent states for a list of compounds. At least one structure is not confirmed: it was looked up by name or label, or the drawing left a doubt.
Assay: Reaction with thionitrobenzoate (detection of thiol-reactive substances, loss of absorbance at 412 nm)
Format: physicochemical
Conditions: aqueous solution at pH 7 and 25° C.
Procedure: A stock solution of 5-thio-2-nitrobenzoate (hereafter referred to as thionitrobenzoate) was prepared by reduction of 5,5′-dithiobis(2-nitrobenzoic acid) (hereafter referred to as DTNB, Aldrich Chemical Company). This stock solution was prepared by mixing 0.1 ml of 0.1 M DTNB dissolved in ethanol (396 mg of DTNB in 10 ml of ethanol), 0.1 ml of 1 M aqueous potassium phosphate buffer (prepared by mixing equal volumes of 1 M monobasic potassium phosphate with 1 M dibasic potassium phosphate), and 0.025 ml of 1 M sodium borohydride dissolved in 1 M NaOH on ice. After incubating this mixture for 10 minutes at ice temperature, 0.1 mL of 1 M monobasic potassium phosphate was added and the resultant solution was diluted to a final volume of 2 ml by addition of 1.675 ml of water. […]
If 0.01 ml of the 10 mM stock of thionitrobenzoate, obtained by sodium borohydride reduction of DTNB, was diluted with 0.89 ml of water and 0.1 ml of 1 M phosphate buffer, it gave an absorbance at 412 nm of 1.36 in a 1 cm pathlength cuvette. If 0.01 ml of the 8.7 mM stock of thionitrobenzoate obtained by 2-mercaptoethanol reduction of DTNB was diluted with 0.89 ml of water and 0.1 ml of 1 M phosphate buffer, it gave an absorbance at 412 nm of 1.18 in a 1 cm pathlength cuvette. […]

## CCN(CC)C(=O)SC [DETC-Me, S-Methyl-N,N-Diethylthiolcarbamate]
  rate of reaction with thionitrobenzoate: < 0.05 M⁻¹ s⁻¹
